Literature values, collected in US20200405643A1, “DRUG COMPOSITIONS CONTAINING POROUS CARRIERS MADE BY THERMAL OR FUSION-BASED PROCESSES” (BOARD OF REGENTS, THE UNIVERSITY OF TEXAS SYSTEM, priority 2017, published 2020).
Read-outs that look alike come from different tables or passages of the source.

COC(=O)C1=C(C)NC(C)=C(C(=O)OC)C1c1ccccc1[N+](=O)[O-] [Nifedipine]
Solubility (37° C.) (pH 1.2): 10 μg/mL (pH 1.2) | Solubility (37° C.) (pH 4): 10 μg/mL (pH 4.0) | Solubility (37° C.) (pH 6.8): 10 μg/mL (pH 6.8)
